Data taken from PubChem BioAssay AID1159506, deposited by NCATS (2015).

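Genome-wide siRNA knockdown in TC32 Ewing sarcoma cells, comparing luciferase light from an NR0B1-promoter reporter with a CMV-promoter reporter 48 hours after transfection. Each siRNA was applied at 20 nM. A z-score of the log NR0B1-over-CMV signal, less the median of siRNAs with the same seed; more negative means a stronger specific loss of the NR0B1 reporter.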

The strongest results of the screen are mostly left out here. Sequences are the guide (antisense) strand, without overhang.

| Sequence | target gene | seed-corrected z-score |
|---|---|---|
| `UGUCGUUCCAGAGCUGCAC` | ANHX | 0.6162 |
| `UACUGUAUUAGCUCGGCAC` | CCDC93 | 0.2733 |
| `UUGGGAGACACCAGCUUGC` | MLXIPL | -0.2431 |
| `AUAGGAAUAUUUAUGCCCU` | HIST1H3I | 0.912 |
| `UCAUGUUUAACUGUCACCU` | ZNF497 | -1.756 |
| `UUGCGUUCACGUGACAUGG` | LUC7L2 | 0.4405 |
| `UUCUGUAUUCAACUGGGCC` | FYTTD1 | -0.9772 |
| `UUGUCUAAGAGCUCCACGU` | AP1S1 | 0.7439 |
| `AUUCAUUAUGGUCAAAUGG` | ZNF382 | -0.9135 |
| `UUAAAAGCAUAAUUCGUCG` | DNAJC19 | 0.1264 |
| `UACUCUCUACAGUUGAUUG` | ZNF343 | -0.1369 |
| `UGGUCUUGAAACUACUUCC` | MAP7D3 | -1.214 |
| `ACUUUGACCACUCGUAUGG` | KIR2DS1 | 0.6306 |
| `UUUGAGUAAAUAGGAAUCC` | MCF2 | -0.2306 |
| `UUGGGAAUGGGUAUGAUGA` | LOC100288914 | 0.2244 |
| `AAGAUGUCCACAAACAGGC` | GRTP1 | 0.1019 |
| `UGGGAGUUCAUCCAAUAGC` | ACER3 | 0.05974 |
| `UUGCUGGCCAGCUGGAUGU` | EIF4E1B | 0.1991 |
| `AAGCUCUUUAUCGAAGUUG` | HSFX1 | 0.04057 |
| `UUUCGGCAUCGCAAUAUUC` | GPR65 | -0.8439 |
| `UUCUCAAACACCCAUCCGG` | LCN6 | 0.5584 |
| `UGCGGAACAGUUUUUCCUC` | HOMER3 | -0.2743 |
| `AGACUUGGAAUGUUCAAUG` | TMEM200B | -1.466 |
| `AAGUCAGACACUGAGAGGC` | SRC | -0.7487 |
| `UCGAUUAUCAGGCAGAUUC` | CFLAR | 0.04912 |
| `UGAUGUUCUUGUUCAGGCC` | CNTF | 0.5112 |
| `UCUGUGCACUUGUUUUUCC` | FGFR1OP | 0.8149 |
| `UUGCGUUUGAUGUUGCUCG` | MRPL34 | 0.5578 |
| `ACCCAGAUAAGUAAACUUC` | PRKAB1 | 0.5618 |
| `UUGCCGAUGACACCUAUGC` | ATP11A | 0.5942 |
| `UCAUAGACAAGGACUGGUC` | MED1 | -0.04126 |
| `UCCAAUAUAAUCAAUGUCC` | GALC | 0.004184 |
| `AACGAUAUCACGGCAGGUC` | PSMA3 | 1.648 |
| `UAUGCGAUCUGCAUGUGCG` | WDR63 | -0.2472 |
| `UUGUAGACAACCCUGGUGU` | LCAT | -0.3156 |
| `UUGAUGAUACAGUUGGAUG` | PRSS47 | -0.2545 |
| `UGUGGAUUAGGUCAGGUAC` | C1orf226 | -0.9458 |
| `UUGUUUGAAUUCUUCUUGC` | CCDC174 | 0.3275 |
| `UCGUUGAUUUCGAAACUGC` | TEX14 | -0.8219 |
| `UCUCUUAGAUGUCUCACUG` | ACSM2A | 0.3768 |
| `UACUCGAUCUCGAUGUUGU` | LINGO1 | 0.201 |
| `UUUUCCUCCACAGAUUAGC` | EXD2 | 0.4396 |
| `UUGGUGCGCAGCAAAAGGC` | CD151 | 0.3131 |
| `UGGAAUACAGGUGUCCUUG` | LIM2 | -0.36 |
| `UGAGGUCUCACCACGUUUC` | PRKX | -0.2629 |
| `UUUCCUUUCACGGAGAAAG` | LINC01547 | 1.001 |
| `UUUCUAUGGACGAGCAUCC` | LOC441268 | -0.3457 |
| `UAGCUUGCUUGAGUCCUGC` | STX12 | -0.9719 |
| `ACUUGUCCCACAAAGACUG` | ARFRP1 | -0.2069 |
| `AAGGGUACAAGUCACAGGC` | OR4C3 | -1.039 |
| `UAAUCGUUUGCGGAUCUGC` | FBXO32 | -0.2104 |
| `AAUGAGGUCCAGAUAGUCC` | MRAP | -0.3107 |
| `UAUCCGAGUAUGAGGAAGC` | NAV1 | 0.11 |
| `AUAAGGUCCACAGAAGUCC` | SLC2A2 | 0.2625 |
| `UACAUAUGCAACUCCCUUG` | RBM43 | -0.5063 |
| `UAAACGACUUCUCUUAAAC` | KIAA1804 | -0.426 |
| `UAACUGGAGAUAGGCAUCG` | FAM26F | -0.9848 |
| `UUUGAUGAUUUUGUAGCGG` | ANKRD2 | 0.05559 |
| `UUAAGAACCUCAUAUACUG` | CPNE9 | 0.4764 |
| `AGAAUGUAUAUAAUCACGU` | FAM9B | -1.019 |
| `AAUGAUAUCUCCAGGUUCC` | FUT8 | 0.01865 |
| `AACAUGGUUAGAAAGCUCC` | MTNR1B | -0.5798 |
| `UCAAUAUCAAAGUCCACGC` | EDEM2 | -0.05061 |
| `AAAGUCUUCGAUGUUAUAG` | ARNT2 | -0.1437 |
| `UUACCAAGUGCUUCGUCCC` | H2AFX | 0.2183 |
| `AAAGUAGAAAAGGCGGUCC` | TRMO | 0.1213 |
| `UUCCGUGUCUAGAUGAGGC` | SP110 | 0.7873 |
| `AAGGAGUAGAGUAAAGUGG` | TM2D2 | -0.1486 |
| `UAAUAACCGAUGAUAAAGC` | MZT1 | 0.5826 |
| `UUAAUUCAUCUGUAGUUCC` | MMAB | 1.06 |
| `UCUUGGUGCACUCCAACAC` | EHBP1L1 | 0.7079 |
| `UCUUUCAUAGCUCACAUAC` | EGFEM1P | 0.204 |
| `UCGAUAUUCACUGCAAAGC` | SPINK5 | 0.07721 |
| `UUUACUUUGAAUAGAUUCC` | CCDC162P | 0.532 |
| `UUGGUCAUGACGCCAUUGC` | FKRP | -0.9412 |
| `UUUCAUCCUCGGCUGAUCC` | PPP1R15A | 1.248 |

For reference, 8 entries once more:

- AGAAUGUAUAUAAUCACGU against FAM9B : seed-corrected z-score -1.019
- UUUCGGCAUCGCAAUAUUC against GPR65 : seed-corrected z-score -0.8439
- AAGGGUACAAGUCACAGGC against OR4C3 : seed-corrected z-score -1.039
- AAGGAGUAGAGUAAAGUGG against TM2D2 : seed-corrected z-score -0.1486
- UACUCGAUCUCGAUGUUGU against LINGO1 : seed-corrected z-score 0.201
- UCAUAGACAAGGACUGGUC against MED1 : seed-corrected z-score -0.04126
- UUAAGAACCUCAUAUACUG against CPNE9 : seed-corrected z-score 0.4764
- AUAAGGUCCACAGAAGUCC against SLC2A2 : seed-corrected z-score 0.2625